{"source": "PubChem BioAssay AID504804 – Drosophila RNAi Screening Center, 2011", "aim": "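Knock-downs shielding fly cells from apoptosis caused by DNA damage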 (primary screen)", "cell system": "Drosophila Kc cells", "reagents": "long dsRNA against Drosophila genes, 0.5 µg dsRNA per well", "timing": "96 h (48 h knock-down, then 48 h drug)", "challenge": "doxorubicin 5 µg/ml for 48 h, added 48 h after dsRNA", "measurement": "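Luminescent ATP counts per replicate, not normalised, reflecting viable cells after 48 h dsRNA knock-down followed by 48 h of 5 µg/ml doxorubicin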", "direction": "raw ATP luminescence: higher = more viable cells, protection from doxorubicin", "rule for the call": "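z-score of 2 or more over plate mean in both duplicates, retained only when retests and separate dsRNAs confirm the protection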", "note": "The deposit covers about 19,000 reagents; this is an unselected part of those with a known target gene and a result. Over the whole deposit, 47 (0.25%) got an active call. 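Signals are raw, not normalised; exact z-scores behind calls not deposited; actives needed confirmation, so some wells reaching 2 SD are inactive.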 Reagents against one gene are numbered here. A plus sign joins genes that one reagent is predicted to hit."}
{"Target gene": "RhoGAP18B (Rho GTPase activating protein at 18B)", "dsRNA no.": 1, "raw ATP luminescence, replicate 1": 3.52e5, "raw ATP luminescence, replicate 2": 3.59e5, "outcome": "inactive"}
{"Target gene": "RhoGAP18B (Rho GTPase activating protein at 18B)", "dsRNA no.": 2, "raw ATP luminescence, replicate 1": 5.07e5, "raw ATP luminescence, replicate 2": 3.52e5, "outcome": "inactive"}
{"Target gene": "RhoGAP18B (Rho GTPase activating protein at 18B)", "dsRNA no.": 3, "raw ATP luminescence, replicate 1": 3.81e5, "raw ATP luminescence, replicate 2": 3.69e5, "outcome": "inactive"}
{"Target gene": "RhoGAP18B (Rho GTPase activating protein at 18B)", "dsRNA no.": 4, "raw ATP luminescence, replicate 1": 2.95e5, "raw ATP luminescence, replicate 2": 2.88e5, "outcome": "inactive"}
{"Target gene": "Mur82C (Mucin related 82C)", "dsRNA no.": 1, "raw ATP luminescence, replicate 1": 38083, "raw ATP luminescence, replicate 2": 34693, "outcome": "inactive"}
{"Target gene": "Mur82C (Mucin related 82C)", "dsRNA no.": 2, "raw ATP luminescence, replicate 1": 63017, "raw ATP luminescence, replicate 2": 60120, "outcome": "inactive"}
{"Target gene": "Map60 (Microtubule-associated protein 60)", "dsRNA no.": 1, "raw ATP luminescence, replicate 1": 48637, "raw ATP luminescence, replicate 2": 49480, "outcome": "inactive"}
{"Target gene": "CG5727", "dsRNA no.": 1, "raw ATP luminescence, replicate 1": 70340, "raw ATP luminescence, replicate 2": 59980, "outcome": "inactive"}
{"Target gene": "CG32055", "dsRNA no.": 1, "raw ATP luminescence, replicate 1": 32613, "raw ATP luminescence, replicate 2": 37810, "outcome": "inactive"}
{"Target gene": "Prosalpha1R + Prosalpha1", "dsRNA no.": 1, "raw ATP luminescence, replicate 1": 63467, "raw ATP luminescence, replicate 2": 60240, "outcome": "inactive"}
{"Target gene": "AdamTS-A (ADAM metallopeptidase with thrombospondin type 1 motif A)", "dsRNA no.": 1, "raw ATP luminescence, replicate 1": 43623, "raw ATP luminescence, replicate 2": 23750, "outcome": "inactive"}
{"Target gene": "AdamTS-A (ADAM metallopeptidase with thrombospondin type 1 motif A)", "dsRNA no.": 2, "raw ATP luminescence, replicate 1": 84490, "raw ATP luminescence, replicate 2": 67660, "outcome": "inactive"}
{"Target gene": "Hk (Hyperkinetic)", "dsRNA no.": 1, "raw ATP luminescence, replicate 1": 1.11e5, "raw ATP luminescence, replicate 2": 1.17e5, "outcome": "inactive"}
{"Target gene": "Hk (Hyperkinetic)", "dsRNA no.": 2, "raw ATP luminescence, replicate 1": 3.97e5, "raw ATP luminescence, replicate 2": 3.94e5, "outcome": "inactive"}
{"Target gene": "MRP (Multidrug-Resistance like Protein 1)", "dsRNA no.": 1, "raw ATP luminescence, replicate 1": 1.00e5, "raw ATP luminescence, replicate 2": 80867, "outcome": "inactive"}
{"Target gene": "CG17715", "dsRNA no.": 1, "raw ATP luminescence, replicate 1": 69803, "raw ATP luminescence, replicate 2": 68783, "outcome": "inactive"}
{"Target gene": "CR12798 (pseudo)", "dsRNA no.": 1, "raw ATP luminescence, replicate 1": 3.18e5, "raw ATP luminescence, replicate 2": 3.05e5, "outcome": "inactive"}
{"Target gene": "CG14104", "dsRNA no.": 1, "raw ATP luminescence, replicate 1": 68410, "raw ATP luminescence, replicate 2": 63027, "outcome": "inactive"}
{"Target gene": "14-3-3zeta", "dsRNA no.": 1, "raw ATP luminescence, replicate 1": 49403, "raw ATP luminescence, replicate 2": 42180, "outcome": "inactive"}
{"Target gene": "CG31088", "dsRNA no.": 1, "raw ATP luminescence, replicate 1": 2.42e5, "raw ATP luminescence, replicate 2": 1.93e5, "outcome": "inactive"}
{"Target gene": "Cyfip (Cytoplasmic FMR1 interacting protein)", "dsRNA no.": 1, "raw ATP luminescence, replicate 1": 42487, "raw ATP luminescence, replicate 2": 23890, "outcome": "inactive"}
{"Target gene": "CG9588", "dsRNA no.": 1, "raw ATP luminescence, replicate 1": 66470, "raw ATP luminescence, replicate 2": 79800, "outcome": "inactive"}
{"Target gene": "CG15890", "dsRNA no.": 1, "raw ATP luminescence, replicate 1": 3.90e5, "raw ATP luminescence, replicate 2": 3.17e5, "outcome": "inactive"}
{"Target gene": "CG3906", "dsRNA no.": 1, "raw ATP luminescence, replicate 1": 73263, "raw ATP luminescence, replicate 2": 52510, "outcome": "inactive"}
{"Target gene": "tyn (trynity)", "dsRNA no.": 1, "raw ATP luminescence, replicate 1": 3.68e5, "raw ATP luminescence, replicate 2": 5.05e5, "outcome": "inactive"}
{"Target gene": "VhaM9.7-c (Vacuolar H[+] ATPase M9.7 subunit c)", "dsRNA no.": 1, "raw ATP luminescence, replicate 1": 41030, "raw ATP luminescence, replicate 2": 37783, "outcome": "inactive"}
{"Target gene": "Eig71Ej", "dsRNA no.": 1, "raw ATP luminescence, replicate 1": 70003, "raw ATP luminescence, replicate 2": 55880, "outcome": "inactive"}
{"Target gene": "Col4a1 (Collagen type IV alpha 1)", "dsRNA no.": 1, "raw ATP luminescence, replicate 1": 80880, "raw ATP luminescence, replicate 2": 66403, "outcome": "inactive"}
{"Target gene": "CG6696", "dsRNA no.": 1, "raw ATP luminescence, replicate 1": 2.77e5, "raw ATP luminescence, replicate 2": 2.34e5, "outcome": "inactive"}
{"Target gene": "CG11333", "dsRNA no.": 1, "raw ATP luminescence, replicate 1": 38320, "raw ATP luminescence, replicate 2": 45730, "outcome": "inactive"}
{"Target gene": "CG14238", "dsRNA no.": 1, "raw ATP luminescence, replicate 1": 38990, "raw ATP luminescence, replicate 2": 47410, "outcome": "inactive"}
{"Target gene": "Hs3st-A (Heparan sulfate 3-O sulfotransferase-A)", "dsRNA no.": 1, "raw ATP luminescence, replicate 1": 38237, "raw ATP luminescence, replicate 2": 61363, "outcome": "inactive"}
{"Target gene": "Abp1 (Actin binding protein 1)", "dsRNA no.": 1, "raw ATP luminescence, replicate 1": 69747, "raw ATP luminescence, replicate 2": 53577, "outcome": "inactive"}
{"Target gene": "CG31313", "dsRNA no.": 1, "raw ATP luminescence, replicate 1": 1.44e5, "raw ATP luminescence, replicate 2": 1.42e5, "outcome": "inactive"}
{"Target gene": "CG15646", "dsRNA no.": 1, "raw ATP luminescence, replicate 1": 3.29e5, "raw ATP luminescence, replicate 2": 2.79e5, "outcome": "inactive"}
{"Target gene": "Cpr65Ax2 + Cpr65Ax1", "dsRNA no.": 1, "raw ATP luminescence, replicate 1": 1.03e5, "raw ATP luminescence, replicate 2": 85193, "outcome": "inactive"}
{"Target gene": "Cpr65Ax2 + Cpr65Ax1", "dsRNA no.": 2, "raw ATP luminescence, replicate 1": 90190, "raw ATP luminescence, replicate 2": 95170, "outcome": "inactive"}
